The list shows only some results of the screen, not a fair sample: it gathers tests that were run many times, whatever their T/C, doses with no T/C, and many T/C values between a quarter and a half above the control. Other doses and runs of a compound stand elsewhere. T/C gives the treated animals as a percentage of the vehicle group. Some doses have a count of surviving animals in place of a T/C: the source holds a T/C of zero for them, seemingly a mark for toxic or unscored doses. Some survivor counts are full or nearly so, which does not show that the dose was tolerated: survival well below the control is almost never listed, so the zero probably covers shortened survival too. Counts of survivors are from the toxicity check (mostly the fifth day) where no day follows; animals may have died later. Schedule codes are those of the source, taken here to give the interval after Q, in days (D) or hours (H), and the number of doses after X. Some entries hold several experiments; the results are listed from low to high. For survival time, this PubChem deposit counts one and a half times the control or more as active, and values a quarter to a half above the control carry no call in these data; other NCI protocols may use other cut-offs. Some T/C values are followed by the survivors on the day toxicity was checked, most often the fifth; without a count, all were alive then. Additions like (4×) stand for listed records that agree.
System: L1210 leukemia ip in BDF1 mice, survival T/C
Assay: NCI In Vivo Anticancer Drug Screen. Data for tumor model L1210 Leukemia (intraperitoneal) in B6D2F1 (BDF1) mice
Settings: T/C endpoint: mean survival time, higher T/C = longer survival
[1] = dose: 100.0 mg/kg/injection, schedule: Q01DX009 (ip), vehicle: methylcellulose (MC)
[2] = dose: 150.0 mg/kg/injection, schedule: Q01DX009 (ip), vehicle: Klucel (hydroxypropylcellulose) (HPC)
[3] = dose: 150.0 mg/kg/injection, schedule: Q01DX009 (ip), vehicle: methylcellulose (MC)
[4] = dose: 160.0 mg/kg/injection, schedule: Q01DX009 (oral), vehicle: other
[5] = dose: 256.0 mg/kg/injection, schedule: Q01DX009 (ip), vehicle: Klucel (hydroxypropylcellulose) (HPC)

O=C1NC(c2cccc3ccccc23)Nc2ccccc21 (centres undefined)
T/C (dose: 31.2 mg/kg/injection, schedule: Q01DX009 (ip), vehicle: water): 139 % of control
T/C (dose: 32.0 mg/kg/injection, schedule: Q01DX009 (ip), vehicle: Klucel (hydroxypropylcellulose) (HPC)): 127 % of control
T/C (dose: 32.0 mg/kg/injection, schedule: Q03HX008 (ip), vehicle: Klucel (hydroxypropylcellulose) (HPC)): 125 % of control
T/C (dose: 32.0 mg/kg/injection, schedule: Q03HX024 (ip), vehicle: Klucel (hydroxypropylcellulose) (HPC)): 128 % of control
T/C (dose: 40.0 mg/kg/injection, schedule: Q01DX009 (ip), vehicle: Klucel (hydroxypropylcellulose) (HPC)): 125 % of control
survivor count (dose: 40.0 mg/kg/injection, schedule: Q01DX009 (oral), vehicle: methylcellulose (MC)): 5 of 8
survivor count (dose: 40.0 mg/kg/injection, schedule: Q01DX009 (oral), vehicle: other): 4 of 8
T/C (dose: 50.0 mg/kg/injection, schedule: Q01DX009 (ip), vehicle: Klucel (hydroxypropylcellulose) (HPC)): 129, 134, 139, 141, 150 % of control
T/C (dose: 50.0 mg/kg/injection, schedule: Q01DX009 (ip), vehicle: methylcellulose (MC)): 107, 113, 116 [5 of 6 alive], 118, 131, 137 % of control
survivor count (dose: 60.0 mg/kg/injection, schedule: Q01DX009 (oral), vehicle: methylcellulose (MC)): 4 of 8
T/C (dose: 64.0 mg/kg/injection, schedule: Q01DX009 (ip), vehicle: Klucel (hydroxypropylcellulose) (HPC)): 142 % of control
T/C (dose: 64.0 mg/kg/injection, schedule: Q03HX008 (ip), vehicle: Klucel (hydroxypropylcellulose) (HPC)): 144 % of control [9 of 10 alive]
T/C (dose: 64.0 mg/kg/injection, schedule: Q03HX016 (ip), vehicle: Klucel (hydroxypropylcellulose) (HPC)): 133 % of control
T/C (dose: 64.0 mg/kg/injection, schedule: Q03HX024 (ip), vehicle: Klucel (hydroxypropylcellulose) (HPC)): 129 % of control
T/C (dose: 100.0 mg/kg/injection, schedule: Q01DX009 (ip), vehicle: Klucel (hydroxypropylcellulose) (HPC)): 87, 92 [5 of 6 alive], 94, 113, 134, 159 % of control
T/C [1]: 86 [5 of 6 alive], 91, 96, 98 [5 of 6 alive], 109, 134 % of control
survivor count [1]: 6 of 6
T/C (dose: 100.0 mg/kg/injection, schedule: Q01DX009 (oral), vehicle: Klucel (hydroxypropylcellulose) (HPC)): 127 % of control
T/C (dose: 100.0 mg/kg/injection, schedule: Q01DX009 (oral), vehicle: methylcellulose (MC)): 103, 106, 108, 114 (2×), 120, 127 % of control
T/C (dose: 100.0 mg/kg/injection, schedule: Q01DX009 (oral), vehicle: other): 92 [7 of 8 alive], 109, 120, 122, 136 % of control
T/C (dose: 100.0 mg/kg/injection, schedule: Q04DX003 (ip), vehicle: methylcellulose (MC)): 128 % of control
survivor count (dose: 120.0 mg/kg/injection, schedule: Q01DX009 (oral), vehicle: other): 3 of 8
T/C (dose: 125.0 mg/kg/injection, schedule: Q01DX009 (ip), vehicle: water): 130 % of control
survivor count (dose: 125.0 mg/kg/injection, schedule: Q01DX009 (oral), vehicle: other): 6 of 8
survivor count (dose: 128.0 mg/kg/injection, schedule: Q03HX008 (ip), vehicle: Klucel (hydroxypropylcellulose) (HPC)): 5 of 10
survivor count (dose: 128.0 mg/kg/injection, schedule: Q03HX016 (ip), vehicle: Klucel (hydroxypropylcellulose) (HPC)): 6 of 10
survivor count (dose: 128.0 mg/kg/injection, schedule: Q03HX024 (ip), vehicle: Klucel (hydroxypropylcellulose) (HPC)): 2 of 10
T/C (dose: 128.0 mg/kg/injection, schedule: Q04DX003 (ip), vehicle: Klucel (hydroxypropylcellulose) (HPC)): 135 % of control
survivor count (dose: 140.0 mg/kg/injection, schedule: Q01DX009 (ip), vehicle: Klucel (hydroxypropylcellulose) (HPC)): 6 of 8
survivor count (dose: 140.0 mg/kg/injection, schedule: Q01DX009 (ip), vehicle: methylcellulose (MC)): 8 of 8
T/C [2]: 109 and 141 % of control
survivor count [2]: 5 of 6 and 6 of 6
T/C [3]: 102 % of control
survivor count [3]: 1 of 6, 2 of 6, 3 of 6, 4 of 6, 5 of 6
T/C (dose: 150.0 mg/kg/injection, schedule: Q01DX009 (oral), vehicle: Klucel (hydroxypropylcellulose) (HPC)): 135 % of control
T/C (dose: 150.0 mg/kg/injection, schedule: Q01DX009 (oral), vehicle: methylcellulose (MC)): 108, 111, 121, 125, 143, 161, 164 % of control
T/C (dose: 150.0 mg/kg/injection, schedule: Q01DX009 (oral), vehicle: other): 145 % of control [5 of 6 alive]
T/C (dose: 150.0 mg/kg/injection, schedule: Q01DX009 (oral), vehicle: saline): 132 % of control
T/C [4]: 126 % of control [7 of 8 alive]
survivor count [4]: 3 of 8
survivor count (dose: 200.0 mg/kg/injection, schedule: Q01DX009 (ip), vehicle: Klucel (hydroxypropylcellulose) (HPC)): 4 of 6, 5 of 6, 6 of 6
survivor count (dose: 200.0 mg/kg/injection, schedule: Q01DX009 (ip), vehicle: methylcellulose (MC)): 0 of 6, 2 of 6, 4 of 6, 5 of 6
T/C (dose: 200.0 mg/kg/injection, schedule: Q01DX009 (oral), vehicle: Klucel (hydroxypropylcellulose) (HPC)): 133 % of control
T/C (dose: 200.0 mg/kg/injection, schedule: Q01DX009 (oral), vehicle: methylcellulose (MC)): 112, 115, 121, 140, 146, 148, 159 % of control
T/C (dose: 200.0 mg/kg/injection, schedule: Q01DX009 (oral), vehicle: other): 127 % of control
T/C (dose: 200.0 mg/kg/injection, schedule: Q01DX009 (oral), vehicle: saline): 125 % of control
T/C (dose: 200.0 mg/kg/injection, schedule: Q04DX003 (ip), vehicle: methylcellulose (MC)): 143 % of control [7 of 8 alive]
T/C (dose: 200.0 mg/kg/injection, schedule: Q04DX003 (ip), vehicle: water): 135 % of control [9 of 10 alive]
T/C (dose: 225.0 mg/kg/injection, schedule: Q01DX009 (oral), vehicle: Klucel (hydroxypropylcellulose) (HPC)): 126 % of control
T/C (dose: 250.0 mg/kg/injection, schedule: Q01DX001 (ip), vehicle: water): 126 % of control
survivor count (dose: 250.0 mg/kg/injection, schedule: Q01DX009 (ip), vehicle: Klucel (hydroxypropylcellulose) (HPC)): 0 of 6, 3 of 6, 5 of 6
survivor count (dose: 250.0 mg/kg/injection, schedule: Q01DX009 (ip), vehicle: methylcellulose (MC)): 0 of 6, 1 of 6, 2 of 6, 3 of 6
T/C (dose: 250.0 mg/kg/injection, schedule: Q01DX009 (oral), vehicle: Klucel (hydroxypropylcellulose) (HPC)): 126, 135 [7 of 8 alive], 141 % of control
T/C (dose: 250.0 mg/kg/injection, schedule: Q01DX009 (oral), vehicle: methylcellulose (MC)): 108, 122 [7 of 8 alive], 125, 140, 153, 154, 186 % of control
survivor count (dose: 250.0 mg/kg/injection, schedule: Q01DX009 (oral), vehicle: other): 3 of 8
T/C (dose: 250.0 mg/kg/injection, schedule: Q01DX009 (oral), vehicle: saline): 132 and 135 % of control
survivor count (dose: 250.0 mg/kg/injection, schedule: Q04DX003 (ip), vehicle: other): 7 of 8
T/C (dose: 250.0 mg/kg/injection, schedule: Q04DX003 (ip), vehicle: water): 142 % of control
T/C [5]: 138 % of control [9 of 10 alive]
survivor count [5]: 4 of 10
survivor count (dose: 300.0 mg/kg/injection, schedule: Q04DX003 (ip), vehicle: other): 0 of 8
survivor count (dose: 300.0 mg/kg/injection, schedule: Q04DX003 (oral), vehicle: methylcellulose (MC)): 4 of 8
survivor count (dose: 300.0 mg/kg/injection, schedule: Q04DX003 (oral), vehicle: other): 4 of 8
T/C (dose: 400.0 mg/kg/injection, schedule: Q04DX003 (ip), vehicle: water): 149 % of control
T/C (dose: 500.0 mg/kg/injection, schedule: Q01DX001 (ip), vehicle: water): 134 % of control
survivor count (dose: 516.0 mg/kg/injection, schedule: Q04DX003 (ip), vehicle: Klucel (hydroxypropylcellulose) (HPC)): 6 of 10
T/C (dose: 1024.0 mg/kg/injection, schedule: Q01DX001 (ip), vehicle: Klucel (hydroxypropylcellulose) (HPC)): 138 % of control
survivor count (dose: 1024.0 mg/kg/injection, schedule: Q04DX003 (ip), vehicle: Klucel (hydroxypropylcellulose) (HPC)): 1 of 10 and 9 of 10
T/C (dose: 1024.0 mg/kg/injection, schedule: Q08DX002 (ip), vehicle: Klucel (hydroxypropylcellulose) (HPC)): 131 % of control [7 of 10 alive]
